In PubChem BioAssay AID445 (National Center for Advancing Translational Sciences (NCATS), 2006):
The other results are listed elsewhere or left out. Shown are side measurements of this screen, not its main read-out; they come without a call. Compounds called inactive in the main read-out are mostly missing here. The note in brackets gives the kind of curve behind each potency; many fits are weak.

Experiment: IkB Signaling
Conditions: ABC-DLBCL IkBa-CBG/CBR dual luciferase ratio (green luciferase fused to IkBa over red control in OCI-Ly3 lymphoma cells), 4 h
In short: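 In this assay, an IκBα–CBG68 fusion accumulates when IKK-driven degradation is blocked; native CBR normalizes for cell number. OCI-Ly3 cells were treated 4 h with compound and doxycycline, then green and red light read after Chroma-Glo addition.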

[1] = measured here: control luc red channel unless noted

SMILES: O=C1C(=O)N(Cc2ccc(Cl)c(Cl)c2)c2ccccc21
- AC50 [1]: 39.8 µM [falling, single point]

SMILES: CCOC(=O)c1ccc(NCc2nc3ccccc3[nH]2)cc1
- AC50 [1]: 25.1 µM [falling, partial curve]

SMILES: Cc1ccc(-c2noc(CSc3nnc(C)n3-c3ccc(C)c(C)c3)n2)cc1
- AC50 [1]: 25.1 µM [falling, partial curve]

SMILES: Cc1cc(NC(=O)c2ccccc2)sc1C
- AC50 [1]: 15.8 µM [falling, partial curve]

SMILES: CCOc1ccc(NC(=O)c2cc(S(=O)(=O)N3CCN(c4ccccc4F)CC3)ccc2F)cc1
- AC50 [1]: 6.31 µM [falling, full curve]

SMILES: COc1ccc(OCC(=O)Nc2cccc(OC)c2)cc1
- AC50 [1]: 20 µM [falling, single point]

SMILES: CCCCN(C)C(=O)CSc1nc2ccccc2nc1Cc1ccc(C)cc1
- AC50 [1]: 31.6 µM [falling, partial curve]

SMILES: Cc1ccc2oc(C(=O)N(Cc3sccc3C)C3CCS(=O)(=O)C3)c(C)c2c1 (configuration not stated)
- AC50 [1]: 31.6 µM [falling, single point]

SMILES: CCOc1ccc(Nc2c(S(=O)(=O)c3ccc(C)cc3)cnc3ccc(F)cc23)cc1
- AC50 [1]: 12.6 µM [falling, single point]

SMILES: COc1ccccc1CNC(=O)C(=O)NCC(c1cccs1)S(=O)(=O)c1cccs1 (configuration not stated)
- AC50 [1]: 15.8 µM [rising, single point]

SMILES: COc1ccccc1C(=O)Nc1nnc2n1CCS2
- AC50 [1]: 1 µM [rising, full curve, poor fit]

SMILES: COc1cccc2c1cc1c(=O)n(CC(=O)NCc3ccco3)nc(C)n12
- AC50 [1]: 10 µM [rising, partial curve, poor fit]

SMILES: Cc1c(Cl)cccc1NC(=O)CSc1nc(=O)n(Cc2ccco2)c2c1CCC2
- AC50 [1]: 39.8 µM [falling, single point]

SMILES: Cc1ccc(CCNC(=O)CN(c2ccc(C)cc2)S(=O)(=O)N(C)C)cc1
- AC50 [1]: 39.8 µM [falling, single point]

SMILES: CC1CCN(S(=O)(=O)c2ccc3c(c2)N(CC(=O)NCC(C)c2ccccc2)C(=O)CO3)CC1 (configuration not stated)
- AC50 [1]: 20 µM [falling, partial curve]

SMILES: CCN1CCN(c2ncnc3c2cnn3-c2cccc(C)c2)CC1
- AC50 [1]: 31.6 µM [falling, single point]

SMILES: O=S1(=O)c2cccc3cccc(c23)N1Cc1nnc(-c2ccccc2Br)o1
- AC50 [1]: 12.6 µM [falling, partial curve]

SMILES: O=C(NC1CCCCC1)c1ccc2c(c1)N(Cc1ccccc1Cl)C(=O)c1ccccc1S2
- AC50 [1]: 1 µM [rising, full curve]

SMILES: CCOc1ccccc1NC(=O)C1CCCN1S(=O)(=O)c1ccc2nc(-c3ccccc3)[nH]c2c1 (configuration not stated)
- AC50 [1]: 5.01 µM [falling, partial curve]

SMILES: CCOc1ccc(S(=O)(=O)Nc2ccc3oc4c(c3c2)CC(C)CC4)cc1 (configuration not stated)
- AC50 [1]: 31.6 µM [falling, partial curve]

SMILES: O=C(Nc1ccc2c(c1)OCO2)c1ccc(Br)c(S(=O)(=O)N2CCCC2)c1
- AC50 (measured here: IkB-luc green channel): 15.8 µM [falling, partial curve]
- AC50 (measured here: control luc red channel): 10 µM [falling, partial curve]

SMILES: Cc1nnc(SCc2nc3ccccc3s2)n1-c1ccccc1
- AC50 [1]: 1.58 µM [falling, full curve, poor fit]

SMILES: CC(C)CN(CC(C)C)CC(O)Cn1cc(/C=C/C(=O)c2ccccc2)c2ccccc21 (configuration not stated)
- AC50 [1]: 6.31 µM [falling, partial curve]

SMILES: COc1ccc(C)c2sc(NC(=O)c3ccc(S(=O)(=O)N4CCCC4)cc3)nc12
- AC50 [1]: 0.398 µM [falling, full curve, poor fit]

SMILES: COc1ccc(C(=O)NCc2ccc3c(c2)CCN3C(=O)c2ccc(F)cc2)cc1
- AC50 [1]: 12.6 µM [falling, partial curve]

SMILES: COc1ccc(Nc2ncnc3c2cnn3Cc2ccccc2)cc1
- AC50 [1]: 39.8 µM [falling, single point]

SMILES: CC1=C(C(=O)OCc2ccc(C)cc2)C(c2ccccc2C(F)(F)F)CC(=O)N1 (configuration not stated)
- AC50 [1]: 15.8 µM [falling, partial curve]

SMILES: O=C(c1cccc(COCC(F)(F)C(F)F)c1)N1CCN(c2ccccc2)CC1
- AC50 [1]: 15.8 µM [falling, partial curve]

SMILES: Cc1ccc(OCCSc2nc3ccccc3n2CC(=O)N2CCOCC2)cc1
- AC50 [1]: 7.94 µM [falling, partial curve]

SMILES: COC(=O)c1c(NC(=O)c2ccc(Cl)c(Cl)c2)sc2c1CCCC2
- AC50 [1]: 0.501 µM [falling, full curve]

SMILES: CCOc1ccc(NC(=O)CSc2nnc3scc(-c4ccccc4)n23)cc1
- AC50 [1]: 39.8 µM [falling, single point]

SMILES: Nc1[nH]nc2nc3ccccc3nc12
- AC50 [1]: 20 µM [falling, partial curve, poor fit]

SMILES: Cc1ccc(-n2ncc(C(=O)Nc3ccc4c(c3)OCCO4)c2C2CCN(C(=O)OC(C)(C)C)CC2)cc1C
- AC50 [1]: 15.8 µM [falling, partial curve]

SMILES: Fc1ccccc1OCCSc1nnnn1-c1ccccc1
- AC50 [1]: 15.8 µM [falling, partial curve]

SMILES: COc1ccccc1N1CCN(C(=O)Cn2ncc3c2-c2cc(C)ccc2OC3)CC1
- AC50 [1]: 31.6 µM [falling, single point]

SMILES: COC(=O)c1cc(NC(=O)Cc2coc3cc(OC)ccc23)cc(C(=O)OC)c1
- AC50 [1]: 10 µM [falling, partial curve]

SMILES: COc1cccc(-c2nc(CS(=O)(=O)CC(=O)Nc3cccc(C(C)=O)c3)c(C)o2)c1
- AC50 [1]: 10 µM [falling, partial curve]

SMILES: COc1cc(CN(C(=O)c2ccc(OC(C)C)cc2)c2ccccn2)cc(OC)c1OC
- AC50 [1]: 25.1 µM [falling, single point]

SMILES: Cc1cc(Nc2nc3ccccc3c3nnc(C)n23)ccc1Br
- AC50 [1]: 0.00501 µM [rising, full curve, poor fit]

SMILES: Cc1[nH]nc(-c2ccc(O)cc2O)c1-c1ccc(Cl)cc1
- AC50 [1]: 12.6 µM [falling, partial curve]

SMILES: Cc1cc(C)cc(NC(=O)CSc2c(C(C)C)cnc3c2c(=O)n(C)c(=O)n3C)c1
- AC50 [1]: 31.6 µM [falling, single point]
